{"source": "patent US20160101146A1", "about": "“TREATMENT FOR INFECTION WITH HEPATITIS B VIRUS ALONE OR IN COMBINATION WITH HEPATITIS DELTA VIRUS AND ASSOCIATED LIVER DISEASES” (NOVARTIS AG, priority 2011, published 2016)", "origin": "cited, not measured here", "system": "Hepatitis B virus", "conditions": "HBeAg-negative patients with CHB, at one year; cited from earlier work", "note": "At least one compound was matched to its structure with a doubt left."}
{"smiles": "Nc1ccn([C@@H]2CS[C@H](CO)O2)c(=O)n1", "note": "[lamivudine]", "values": [{"measurement": "rate of undetectable HBV DNA", "value": 72, "unit": "%"}]}
